Results taken from paper PMC5922973, “Topoisomerase VI senses and exploits both DNA crossings and bends to facilitate strand passage” (eLife, 2018).
No constants are given. Whether binding was seen depends on the method and setting. Some results given as binding are weak or reduced against the parent protein; the word gives no strength.

Target: M. mazei Top6B cyslite-155C, Alexa555/Alexa647-labeled, in the topo VI holoenzyme (Methanosarcina mazei) (UniProt Q8PUB8)
Experiment: FRET or BRET; bulk FRET between Alexa555 and Alexa647 on Cys155 of the two Top6B in the holoenzyme; 200 nM topo VI without DNA, before and up to 120 min after 1 mM AMPPNP; 50 mM potassium glutamate, 20 mM HEPES-KOH pH 7.5, 10 mM MgCl2; both purified

- binding: binds weakly
B1: M. mazei Top6B cyslite-155C, Alexa555/Alexa647-labeled, in the topo VI holoenzyme (enzyme, Methanosarcina mazei)
chain: METPIAEELAKKQKSISVAEFFEKNRQILGFDSAPRSLITTVKEAVDNALDACEEAGILPDILVQVERTGPDYVTVIIEDNGPGIVREQIPKVFAKLLYGSRFHALKQSRGQQGIGISAAVLYAQMTAGRHTKILSKTSPTAPAHYYELMINTSCNEPDILVDEVRDWFRPHGTQIELEMRAAYVKGRRQSIYEYLKATAIVNPHARITLIDPDGNEEVFERATDKMPEPAEEILPHPEGIELGTLMKMLHYTERQKLAPFLRYSFSKIGLLTAEEIAKAAGLDPEIDPHALGRHEARKLIEAFEKVKIMAPPTDALSPIGEDLIYRGLEKETTVDFIATSTRKPAVYSGNPFVVEVGMAYGGNLPKEEKISIMRFANRVPLLYQQGGCVTTHAVEDIKWKQYGLNQPGGGIPVGPVILLIHVASINVPFTSESKDAIADIPVIKEEIDLAIKEVARKLKHYLSKQSNLKKRREKEIIITKVLPKLAAKVAHVLEKDVPDINPVVAKIMGNLLVHRVIKNNGDGTVDVAIKVKNFGTSAYSFRVHEMLPAKVSGAKPEPKVVTMGNDYDYVWDISASAGSSKVLSYKIESASEEELQKLPQLIVEGIEEELVTGAKAFKGV
modifications: Alexa Fluor 555 C2 maleimide or Alexa Fluor 647 C2 maleimide on Cys155
notes: Top6B of Methanosarcina mazei topo VI, 'cys-lite' with Thr155 changed to cysteine; Stood in the assay as part of the A2B2 holoenzyme with Top6A; population is a mix of donor-acceptor (50%), acceptor-acceptor (25%) and donor-donor (25%) labeled enzymes; also called topo VI^cyslite-155C; TopoVI^cyslite-155C; not shown: His6, N-terminal, cleaved
